The results in this text go back to article PMC11321632.

Sequences of proteins named here, by UniProt entry; tags and fusion partners are left off. Residues count along the entry.
UniProt P51150: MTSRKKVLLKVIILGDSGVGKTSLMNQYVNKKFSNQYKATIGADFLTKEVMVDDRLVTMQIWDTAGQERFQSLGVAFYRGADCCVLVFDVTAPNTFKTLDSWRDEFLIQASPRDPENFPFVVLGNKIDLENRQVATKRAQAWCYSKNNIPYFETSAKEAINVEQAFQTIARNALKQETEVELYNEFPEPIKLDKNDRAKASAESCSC
UniProt Q8K2C6, residues 37-310: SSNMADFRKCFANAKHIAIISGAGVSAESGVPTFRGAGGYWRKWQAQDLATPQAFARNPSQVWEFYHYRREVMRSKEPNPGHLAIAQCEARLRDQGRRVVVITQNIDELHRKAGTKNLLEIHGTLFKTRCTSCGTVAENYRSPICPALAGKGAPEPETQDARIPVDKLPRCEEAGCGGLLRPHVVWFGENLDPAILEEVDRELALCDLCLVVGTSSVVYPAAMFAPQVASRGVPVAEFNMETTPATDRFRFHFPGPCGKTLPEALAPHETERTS

In this assay the target is Lysosomal Ras-associated protein 7a (RAB7A), recombinant mouse protein (mouse) (UniProt P51150). Briefly: SPR; RAB7A immobilised on a CM5 chip; twofold dilution series of SIRT5 injected at 10 µl/min for 60 s, dissociation 90 s; BIAcore T200; 1:1 Langmuir model; both purified. In general terms: Surface plasmon resonance follows binding to a sensor surface in real time, without labels.

No constants are given. Whether binding was seen depends on the method and setting. Some results given as binding are weak or reduced against the parent protein; the word gives no strength.

On to “Sirtuin 5 (SIRT5), recombinant mouse protein (from UniProt Q8K2C6 37-310) (enzyme)”, for which the binding entry is “binds”.
